Laboratory results as given in patent US10100022B2, “Sphingosine kinase inhibitors” (University of Virginia Patent Foundation, priority 2014, dated 2018).

Protein sequences, listed by entry. Tags and fused reporters are not part of them.
UniProt Q9NRA0, whole entry: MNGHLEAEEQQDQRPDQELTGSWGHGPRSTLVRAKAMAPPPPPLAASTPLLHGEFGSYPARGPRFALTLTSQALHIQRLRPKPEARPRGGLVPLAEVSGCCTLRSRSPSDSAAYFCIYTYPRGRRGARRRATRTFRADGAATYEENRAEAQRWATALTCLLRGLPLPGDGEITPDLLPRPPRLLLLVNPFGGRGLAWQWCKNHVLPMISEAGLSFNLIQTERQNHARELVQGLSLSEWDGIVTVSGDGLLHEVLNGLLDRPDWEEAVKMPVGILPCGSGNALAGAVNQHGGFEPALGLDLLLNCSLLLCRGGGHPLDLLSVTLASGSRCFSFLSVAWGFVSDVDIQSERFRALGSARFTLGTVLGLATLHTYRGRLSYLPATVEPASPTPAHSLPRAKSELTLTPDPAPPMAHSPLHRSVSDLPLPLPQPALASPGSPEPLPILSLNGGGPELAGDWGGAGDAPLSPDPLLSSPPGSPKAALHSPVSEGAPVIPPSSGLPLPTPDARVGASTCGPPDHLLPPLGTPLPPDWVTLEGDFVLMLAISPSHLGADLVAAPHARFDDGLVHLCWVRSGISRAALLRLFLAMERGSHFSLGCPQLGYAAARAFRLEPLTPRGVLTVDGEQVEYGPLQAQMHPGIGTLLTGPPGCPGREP
UniProt Q9NYA1, whole entry: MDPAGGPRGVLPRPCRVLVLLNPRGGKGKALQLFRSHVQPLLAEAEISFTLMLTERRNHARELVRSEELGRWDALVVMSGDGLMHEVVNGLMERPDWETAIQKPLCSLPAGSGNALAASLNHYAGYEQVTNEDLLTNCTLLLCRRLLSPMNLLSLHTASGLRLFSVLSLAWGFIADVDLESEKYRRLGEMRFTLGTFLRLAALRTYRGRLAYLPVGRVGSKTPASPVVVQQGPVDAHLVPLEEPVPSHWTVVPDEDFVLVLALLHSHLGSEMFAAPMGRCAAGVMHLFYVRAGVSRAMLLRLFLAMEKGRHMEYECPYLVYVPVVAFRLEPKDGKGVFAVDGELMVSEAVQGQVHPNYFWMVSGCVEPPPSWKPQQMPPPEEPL

Key:
[1] = biological target: human sphingosine kinase type 2 (hSPHK2) (Homo sapiens, UniProt Q9NRA0); assay: Sphingosine kinase assay, recombinant human SPHK2 ([32P]S1P product, scintillation counting); type: biochemical
[2] = biological target: human sphingosine kinase type 1 (hSPHK1) (Homo sapiens, UniProt Q9NYA1); assay: Sphingosine kinase assay, recombinant human SPHK1 ([32P]S1P product, scintillation counting); type: biochemical; details: read-out: activity hSPHK1 (range estimate of KI), tested form: TFA

SMILES	Ki ([1]; read-out: activity hSPHK2 (range estimate of KI), tested form: HCl) [µM]	Ki [2] [µM]	Ki ([1]; read-out: activity hSPHK2 (range estimate of KI), tested form: TFA) [µM]
CCCCCCCCCn1ccc2cc(-c3noc([C@@H]4CCCN4C(=N)N)n3)ccc21	< 1	–	–
CCCCC/C=C/COc1ccc(-c2noc([C@@H]3CCCN3C(=N)N)n2)cc1C(F)(F)F	–	> 10	< 1

Where two headings read alike, the source gives them in different places. Structures were worked out from names or drawings and are uncertain.
